Assay results published in US20220098265A1 (MEDIMMUNE LIMITED, priority 2012, published 2022).
For some assays here: Not every detail of the peptide structures is certain; ends, links or a residue may be inferred. For some assays here: For at least one compound, name, drawing or mass did not settle the structure. Numbered stars: 1 amine (or outer) side, 2 acyl side, 3 side chain; on linkers, the order of the positions; unused ones are H or OH. Side chains are listed from the residue outwards. Peptide text beside a SMILES is read from it. * marks the point of attachment. γGlu = O=C(O)[C@H](CCC(=O)[*:2])N[*:1]; Palmitoyl = CCCCCCCCCCCCCCCC(=O)*

What was measured:
DIO mice [1] = assay: Diet induced obesity (DIO) mouse model, study B; type: in vivo
Method: (§1) The body weight of the animals was monitored daily throughout the dosing period At day 14, blood samples for the measurement of plasma glucose and insulin from conscious mice were obtained after a 4-hour fasting period. Mice were then anaesthetized using isofluorane and terminal blood was collected from the capillary bed behind the eye. The following parameters were measured: blood chemistry measurements of triglycerides, total cholesterol, non-esterified fatty acids (NEFA), beta-hydroxybutyrate and fibroblast growth factor 21 (FGF21) (Table 16 and Table 17 below).

DIO mice [2] = assay: Diet induced obesity (DIO) mouse model, study A; type: in vivo
Text: Female C57/B16JHsdOla (obtained from Harlan Laboratories, UK) were started on a high fat diet of D12492 (Research Diets, NJ, USA) and a chocolate confection, delicato ball (Delicata Bakverk, Sweden) at 9-11 weeks of age, and were maintained on the diet for 16 weeks prior to arrival to the animal facility, during a three week acclimatizion period and during drug treatment, caloric content of the two components of the diet is shown in Table 11. The mice were divided into 9 groups (n=5-6), and treatment was started at 29 weeks of age.
as §1, with “dosing period.” for “dosing period”, “(FGF21) (Tables 14” for “(FGF21) (Table 16”, “and 15” for “and Table 17”

Human GIPr = molecular target: T1, Human GIPr (Homo sapiens, UniProt P48546); assay: cAMP activity assay 1 in assay medium, human GIP receptor; type: cell-based; conditions: additional peptides (Table 4), read-out: hGIPR EC50
T1 construct: expressed in transfected cells
T1 sequence (P48546 22-466): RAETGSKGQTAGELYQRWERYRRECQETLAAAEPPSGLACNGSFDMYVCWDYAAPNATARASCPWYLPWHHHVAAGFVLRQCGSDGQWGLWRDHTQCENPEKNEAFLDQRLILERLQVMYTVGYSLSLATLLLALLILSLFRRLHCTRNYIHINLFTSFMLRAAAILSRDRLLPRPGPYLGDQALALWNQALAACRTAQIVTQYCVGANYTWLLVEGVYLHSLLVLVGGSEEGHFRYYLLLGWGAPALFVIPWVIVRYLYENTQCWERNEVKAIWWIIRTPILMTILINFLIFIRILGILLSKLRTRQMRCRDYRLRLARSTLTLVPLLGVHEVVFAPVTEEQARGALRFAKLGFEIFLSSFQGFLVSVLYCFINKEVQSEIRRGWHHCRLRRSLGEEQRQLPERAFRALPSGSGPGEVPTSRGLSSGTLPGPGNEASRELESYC

[3] = 27 nmol/kg s.c. twice daily, day 14
[4] = 27 nmol/kg s.c. twice daily, day 14 (dose from row order of upper part of table)
[5] = 27 nmol/kg s.c. twice daily, day 14, 4-hour fasting

| Compound | BW day 14 (% change of vehicle mean) (DIO mice [1]; 27 nmol/kg s.c. twice daily for 14 days, day 14) | HOMA (DIO mice [1]; [3]) | Hepatic TG (g TG/100g tissue) (DIO mice [1]; [3]) | Plasma NEFA (DIO mice [1]; [3]) | Plasma TG (DIO mice [1]; [3]) | BeHy (DIO mice [1]; [4]) | FGF21 (DIO mice [1]; [4]) | Glucose (DIO mice [1]; [5]) | Insulin (DIO mice [1]; [5]) | BW day 14 (% change of vehicle mean) (DIO mice [2]; 27 nmol/kg s.c. twice daily for 14 days) | HOMA (DIO mice [2]; [3]) | Hepatic TG (DIO mice [2]; [3]) | Plasma NEFA (DIO mice [2]; [3]) | Plasma TG (DIO mice [2]; [3]) | FGF21 (DIO mice [2]; 27 nmol/kg s.c. twice daily, day 14 (dose from row order)) | Glucose (DIO mice [2]; [5]) | Insulin (DIO mice [2]; [5]) | Total plasma cholesterol (DIO mice [2]; at all doses, result in words) | BeHy (DIO mice [2]; beta-hydroxybutyrate, 27 nmol/kg s.c. twice daily, day 14 (dose from row order)) | EC50 (Human GIPr) |
| --- | --- | --- | --- | --- | --- | --- | --- | --- | --- | --- | --- | --- | --- | --- | --- | --- | --- | --- | --- | --- |
| CCCCCCCCCCCCCCCC(=O)N[C@@H](CCC(=O)NCCCC[C@H](NC(=O)[C@H](C)NC(=O)[C@H](C)NC(=O)[C@H](CCC(N)=O)NC(=O)CNC(=O)[C@H](CCC(=O)O)NC(=O)[C@H](CC(C)C)NC(=O)[C@H](Cc1ccc(O)cc1)NC(=O)[C@H](CO)NC(=O)[C@H](CO)NC(=O)[C@@H](NC(=O)[C@H](CC(=O)O)NC(=O)[C@H](CO)NC(=O)[C@@H](NC(=O)[C@H](Cc1ccccc1)NC(=O)[C@@H](NC(=O)CNC(=O)[C@H](CCC(=O)O)NC(=O)[C@H](C)NC(=O)[C@@H](N)Cc1cnc[nH]1)[C@@H](C)O)[C@@H](C)O)C(C)C)C(=O)N[C@@H](CCC(=O)O)C(=O)N[C@@H](Cc1ccccc1)C(=O)N[C@H](C(=O)N[C@@H](C)C(=O)N[C@@H](Cc1c[nH]c2ccccc12)C(=O)N[C@@H](CC(C)C)C(=O)N[C@H](C(=O)N[C@@H](CCCNC(=N)N)C(=O)NCC(=O)N[C@@H](CCCNC(=N)N)C(=O)NCC(=O)O)C(C)C)[C@@H](C)CC)C(=O)O [Liraglutide, reference compound] | −14% | 2.51 | 18.4 g TG/100g tissue | 0.29 mM | 0.28 mM | 572.25 µmol/L | 2990 pg/mL | 7.7 mM | 0.31 nM | −13.3% | 2.8 | 13.1 g TG/100g Tissue | 0.24 mM | 0.24 mM | 2481 pg/mL | 8.0 mM | 0.3 nM | lowered | 345 µmol/L |  |
| CCCCCCCCCCCCCCCC(=O)N[C@@H](CCC(=O)NCCCC[C@H](NC(=O)[C@H](Cc1ccc(O)cc1)NC(=O)[C@H](CCCCN)NC(=O)[C@H](CO)NC(=O)[C@H](Cc1ccc(O)cc1)NC(=O)[C@H](CC(=O)O)NC(=O)[C@H](CO)NC(=O)[C@@H](NC(=O)[C@H](Cc1ccccc1)NC(=O)[C@@H](NC(=O)CNC(=O)[C@H](CCC(N)=O)NC(=O)[C@H](CO)NC(=O)[C@@H](N)Cc1c[nH]cn1)[C@@H](C)O)[C@@H](C)O)C(=O)N[C@@H](CC(=O)O)C(=O)N[C@@H](CO)C(=O)N[C@@H](CCCNC(=N)N)C(=O)N[C@@H](CCCNC(=N)N)C(=O)N[C@@H](C)C(=O)N[C@@H](CCCNC(=N)N)C(=O)N[C@@H](CC(=O)O)C(=O)N[C@@H](Cc1ccccc1)C(=O)N[C@H](C(=O)N[C@@H](C)C(=O)N[C@@H](Cc1c[nH]c2ccccc12)C(=O)N[C@@H](CC(C)C)C(=O)N[C@@H](CCC(=O)O)C(=O)N[C@@H](C)C(N)=O)C(C)C)C(=O)O [g804] (H-HSQGTFTSDYSKYK([γGlu-Palmitoyl])DSRRARDFVAWLEA-NH2; N-terminus assumed) |  |  |  |  |  |  |  |  |  |  |  |  |  |  |  |  |  |  |  | 99.7 nM |
